Experimental data: publication PMC12632274, “The PA2803-encoded PcrP exhibits a novel non-catalytic function and contributes to polymyxin B resistance in P. aeruginosa” (Journal of Bacteriology, 2025)

Target: 6xHis-PcrP expressed in P. aeruginosa PAO1 ΔpcrP (P. aeruginosa PAO1) (UniProt Q9I040)
Experiment: affinity purification with mass spectrometry; 6xHis-PcrP as bait in lysate of PAO1 ΔpcrP grown in BMM8 at 0 or 5 mM Ca2+; HisPur Ni-NTA resin, 4°C, 2 h, 10 mM Tris-HCl pH 7.5; LC-MS/MS; ΔpcrP as negative control

With “Protein phosphatase (PA2978) (from UniProt Q9HZM6)” the binding was “binds”.

For “Protease subunit HflC (PA4941) (from UniProt Q9HUM3)”, the binding was “binds”.

With HsiB2 (PA1657) (from UniProt Q9I368) the binding was “binds”.

B1: PqsB (PA0997) (protein, UniProt Q9I4X2 1-283)
chain: MLIQAVGVNLPPSYVCLEGPLGGERPRAQGDEMLMQRLLPAVREALDEAAVKPEEIDLIVGLALSPDHLIENRDIMAPKIGHPLQKVLGANRAHVFDLTDSSLARALYVVDTLASDQGYRNVLVVRGESSQGLEVDSESGFALADGALALLCRPTGKAAFRRGALGGDPAQEWLPLSIPLNTDIRQVGDVKGHLNLPAQPGLPEAVRAGFTRLAGDFPQLNWVREEWFGQGRPDGRCLGPFELASQLRAAQRDRLDELLLISFDPFGMVVEGVTLELAGEAHA
With B1 the binding was “binds”.

B2: PA5027 hypothetical protein (protein, UniProt Q9HUE2 1-271)
chain: MIRHLLVAHDLTPEADVALARAAQLARQHDARVSLLHVYDPGLSASAVKTVSAMLQLKRKEAGLDEDSAIHLFRGQPIDGILQQTRALEPDLLLMGAHHQKTFERFGNTTLDQVVRRSRVPVLLAVREADEPYRQALSALDFSQCACTALRQAYRLLPVEADLHALHVFESPDDGVLGLPRQNAAHLATQAGLIEQLLSDEQERLPGVGPQLSHEVVPGVLPYSLDAALKQRQPELLALGRHSRNALMQALLGNLAQRYLRQPSCDVLVTS
For B2, the binding was “binds”.

B3: PA3720 hypothetical protein (protein, UniProt Q9HXS1 1-141)
chain: MNAPAKSLLDIDAFPLVQVREMPRELADVERWLEEVEALLAVERDFALVYPPLPQETAEGDQQARKRLVLWLKENRQRFVEHCRGILLSANGQPDNLADLQQLAPVLQAVYGPPVSVAPDLASARGMAKALLSGPATGMNW
B3 was tested, and the binding was “binds”.

B4: Coproporphyrinogen III oxidase (PA1546) (protein, UniProt P77915 1-460)
chain: MLDTIRWDADLIRRYDLSGPRYTSYPTAVQFHEGIGPFDQLHALRDSRKAGHPLSLYVHIPFCANICYYCACNKVITKDRGRSAPYLARLVREIEIVSRHLSREQVVEQLHFGGGTPTFLSPGQLRELMSQLRTHLNLLDDDSGDYGIEIDPREADWSTMGLLRELGFNRVSLGVQDFDMEVQKAVNRMQTPEETRTIVEAARTLQYRSINLDLIYGLPKQTPDSFARTVDEVIALQPDRLSVFNYAHLPERFMPQRRINADDLPSPGQKLEMLQRTTEQLAAAGYRYIGMDHFALPDDELASAQEDGTLQRNFQGYTTHGHCDLVGLGVSAISQIGDLYSQNSSDINDYQTSLDNGQLAIRRGLHCNSDDRVRRAVIQQLICHFELAFEDIETEFGIDFRSYFAELWPDLERFAADGLIRLDAKGIDITSSGRLLVRSICMLFDRYLPSLNRQRFSRVI
With B4 the binding was “binds”.

B5: Methyltransferase (PA5457) (protein, UniProt Q9HTB3 1-287)
chain: MIRALLQRWRSRPAAASEPVSPRMCGLRDAVLDGWFRSETGELLAGFAIGAQDTLLDLGCGEGVATLFAARQGASVIFTDSEEDKVRSLAQQVEAVARRPFTGLVSDSDPLPLRDACADKLVCMEVLEHVANPARVMAELVRLGRPGAQYLLSVPDPVGEHLQQGIAPADYFRAPNHIHIFSRDDFARLVQDAGLVIEHRQASGFFWVMGMIFFWASERAAGRELGGAVRDRIQPPYPALMEDWARLWENLLARPDGLEIKHLLDHFMPKSQVIIARKPLDPGSSRT
B5 was tested, and the binding was “binds”.

B6: PA3374 conserved hypothetical protein (protein, UniProt Q9HYM7 1-387)
chain: MSSERVLSNARVVSAERVFVGSVLLRDGLIAAVDEGRSHLAGAEDLGGDYLLPGLVELHTDNLEKHMTPRPGVDWPSASAVLAHDAQIVSAGITTVFDALSIGDVNPKGKRMQQLPKMLEAIGEAAASGDARADHRLHLRCEVSHPQTLEVFRELVEHPLVQLVSVMDHAPGQRQFARLEKYREYYQGKYHLSDAEMDAFIVEQVANSERYSDAARAAIVDVCQGRGLSVASHDDATLAHVRESAGYGMAIAEFPTTVEAARASHEHGLQVLMGAPNVVRGGSHSGNVAAAQLAGIGVLDILSSDYYPASLLHAALLLAGEHSEYDAIRYDLPRAVAMVSRTPALAAGLTDRGEIRVGLRADLLQARALGNNQPVVRQVWRGGQRVF
In the case of B6, the binding is reported as “binds”.

B7: PA5475 hypothetical protein (protein, UniProt Q9HT95 1-186)
chain: MSNVQNASRSSAFAAVEGDHWVESLDDGRHVLIRPLREEDRERERQFINRLSPATRHFRFLGEIKEASPALLDQLMDIDYQQSMAFVALVHEDGELREVGISRYAACCEEGQCECAVTIADDYQGLGLDAVLMRHLIDVARRNGFRQMYSVDSAANRAMRDLCCALGFVGQRDPDDSTQVIHRLAL
B7 was tested, and the binding was “binds”.

B8: PA3233 hypothetical protein (protein, UniProt Q9HZ07 1-599)
chain: MPDSFNFASPPFDQLRPHQRETLKQALSVGYYAPGETLLEAGSAVPGLFVLLKGVVEERGDDGRVFAQYAADDLFDVRGLFSGSSKHRYLAIEESIVYELPASCFHQLCGENPGFARFFQADLAAKRQLAQRDGQNLAEFILTRIAREHLLPALEVEASLSLGDAARLQLSHGADALLVRLERDGPELGIVTRTDLMSAHFRDGRSELEAIGPLAHGPLASVELGDFLFDAMILMTRQRIERVAVTEDGQVIGLLHLTQVLSLFSTHSHVLALRIARADDLGDLRRCAETLDTLIATLAGNGIRLRFIMQLVSALNEQLLERLFELLLPPTLRGRCCLLVMGSEGRGEQLLKTDQDNALVLADDLPQEQALAMMQRFSAALLEFGYPPCPGGVMASRPEWCKPLAAWQAELRGTLLEGKPEQLLRLSILADAWPVAGNLQLFEPLRWQLRGFADGGERWLADIAAAALQFDTPLTFLGQLKTQDARLDLKRGGIFPIVHGIRTLALREGLETRGTLARIEALKRHKVLEARLADDLSESFELFLQLRLTRQLAGQRDGRQQGLDVSGMSRHDRDMLRYGLHVVKKFKQSVARQFHLETR
B8 was tested, and the binding was “binds”.

B9: 50S ribosomal protein L27 (PA4567) (protein, UniProt Q9HVL7 1-85)
chain: MAHKKAGGSTRNGRDSESKRLGVKLFGGQAVKAGNILVRQRGTKFHAGYGVGLGKDHTLFAKVDGVVKFETKGAFGRKYVSIVAA
B9 was tested, and the binding was “binds”.

B10: PA1545 hypothetical protein (protein, UniProt Q04628 1-155)
chain: MLTLSGWITTQVPPSSRAAADAKAARTGTAEQAEDPAAGTDAADQHVQLSQAGRELAATMGVPVEEEDEDIPQELRPMVKMIRELKKKIEEKLRELQEAMRSSDPGAKEARVPELQKELQQLNSALQTATAAMASAIKEMGISDPALIMKVMGSR
With B10 the binding was “binds”.

B11: PA1218 hypothetical protein (protein, UniProt Q9I4C0 1-292)
chain: MKHYRQVVSPQLRQQALDWILAAAQRPDPALEPEFDIADDERREAKKVRNLHRHDPLFWDDWFARSGLDALVRDHLRKPRLLRHAAFIKRHADESYIPLHQDIALWEKRYESAQTFWVALTPSRNDNGGMFYYPDDRTIFPHEFDLAYPMFKCIDLQANGISREQLVDAELDAGDVLVWPARTAHGSHNNRSGQLRIGMPIVFVEDDEFHQLNREDSMKTWIASNLKSVFPDEAITEDNLDHYLPQLCDYSLKMVTFLARFSRQFGHAPKIHDFIREPRLATLSASDAGARR
In the case of B11, the binding is reported as “binds”.

B12: PA5269 hypothetical protein (protein, UniProt Q9HTT1 1-91)
chain: MSEQDDNQEDGFAEEKLIQAIENQIESENPPAARAVFNKLTLVGYERDEALGMMAYVLAHEINAMLAADRAFDSAGYEHALRALPTLPDDE
In the case of B12, the binding is reported as “binds”.

B13: PA0805 hypothetical protein (protein, UniProt Q9I5D3 1-75)
chain: MSIQHRTQDAIRTLTAAFAPFDCLIQATRKGNFSFTIVDQHGVACHSERLYPEQYDDSGKMEEVINRVRKKTLAA
In the case of B13, the binding is reported as “binds”.

B14: PA3518 hypothetical protein (protein, UniProt Q9HY91 1-328)
chain: MNTRNFSLPQLQNLPIEEARIVADALAVHATSRQIDSAASKLAALAEAGLKGDRQAYAAYQQLLYVLSLSDDVATAQTRRWLARAIYRVEERFMPAADLSRALSEEDFQKRLEQEIAAQSRERHPMSQYVFSGSASRAQLQVFLRHQWFRTFRLYRDAADLLVNLTDVDEAAALARYLYGELGEEDEKGSHPRLLAKLLEAIGLEADFQAVSTMPEEIAYLNNRARAFRHAEVGWGLAVFYITELVVPGNHEKLYRALLQAGLSEDQAEYYKVHISLVPPRAKREWQLIARRIPDVQFQNAFLTSLSQHFRVERAYYDAIWEEMQSVK
In the case of B14, the binding is reported as “binds”.

No constants are given. Whether binding was seen depends on the method and setting. Binding seen in cells or lysates may run through a third protein. Here binding means that the protein was enriched with, or labelled near, the bait; the list need not be complete.
